Assay results from article PMC9670593 (Journal of Molecular Liquids, 2022).
Converted amounts (≈) assume the structure as drawn.

Tested on: Escherichia coli (ATCC: 25922)
Assay: Antibacterial minimal inhibitory concentration
Type: cell-based
Settings: 24 h, read-out: Minimum Inhibition concentration (MIC)
Summary of the method: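 Test compounds were stocked at 20 mg/mL in DMSO. Ampicillin was run as standard drug and DMSO as negative control. MIC reported in μM.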

**Q.** Which MIC does the source give for `CC1(C)S[C@@H]2[C@H](NC(=O)[C@H](N)c3ccccc3)C(=O)N2[C@H]1C(=O)O` [Ampicillin, reference compound] here?
**A.** Its MIC is 3.5 µM (≈ 1.22 µg/mL).
